No constants are given. Whether binding was seen depends on the method and setting. Some binding calls cover weakened binding; strength is not graded here.
T1: human Elp6 (subunit of hElp456) (Homo sapiens) (UniProt Q0PNE2)
T1 sequence: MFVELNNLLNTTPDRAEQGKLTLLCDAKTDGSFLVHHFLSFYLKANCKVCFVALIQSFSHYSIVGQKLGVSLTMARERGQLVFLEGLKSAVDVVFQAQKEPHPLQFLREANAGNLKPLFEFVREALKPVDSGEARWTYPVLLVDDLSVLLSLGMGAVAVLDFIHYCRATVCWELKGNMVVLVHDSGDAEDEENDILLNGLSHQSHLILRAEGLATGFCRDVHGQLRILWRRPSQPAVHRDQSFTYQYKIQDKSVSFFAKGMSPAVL

Chains of the proteins cited; added tags and fusions are not shown. Lines headed by an entry give the natural chain unless they say otherwise; changes in a name come on top.
UniProt Q7TT37: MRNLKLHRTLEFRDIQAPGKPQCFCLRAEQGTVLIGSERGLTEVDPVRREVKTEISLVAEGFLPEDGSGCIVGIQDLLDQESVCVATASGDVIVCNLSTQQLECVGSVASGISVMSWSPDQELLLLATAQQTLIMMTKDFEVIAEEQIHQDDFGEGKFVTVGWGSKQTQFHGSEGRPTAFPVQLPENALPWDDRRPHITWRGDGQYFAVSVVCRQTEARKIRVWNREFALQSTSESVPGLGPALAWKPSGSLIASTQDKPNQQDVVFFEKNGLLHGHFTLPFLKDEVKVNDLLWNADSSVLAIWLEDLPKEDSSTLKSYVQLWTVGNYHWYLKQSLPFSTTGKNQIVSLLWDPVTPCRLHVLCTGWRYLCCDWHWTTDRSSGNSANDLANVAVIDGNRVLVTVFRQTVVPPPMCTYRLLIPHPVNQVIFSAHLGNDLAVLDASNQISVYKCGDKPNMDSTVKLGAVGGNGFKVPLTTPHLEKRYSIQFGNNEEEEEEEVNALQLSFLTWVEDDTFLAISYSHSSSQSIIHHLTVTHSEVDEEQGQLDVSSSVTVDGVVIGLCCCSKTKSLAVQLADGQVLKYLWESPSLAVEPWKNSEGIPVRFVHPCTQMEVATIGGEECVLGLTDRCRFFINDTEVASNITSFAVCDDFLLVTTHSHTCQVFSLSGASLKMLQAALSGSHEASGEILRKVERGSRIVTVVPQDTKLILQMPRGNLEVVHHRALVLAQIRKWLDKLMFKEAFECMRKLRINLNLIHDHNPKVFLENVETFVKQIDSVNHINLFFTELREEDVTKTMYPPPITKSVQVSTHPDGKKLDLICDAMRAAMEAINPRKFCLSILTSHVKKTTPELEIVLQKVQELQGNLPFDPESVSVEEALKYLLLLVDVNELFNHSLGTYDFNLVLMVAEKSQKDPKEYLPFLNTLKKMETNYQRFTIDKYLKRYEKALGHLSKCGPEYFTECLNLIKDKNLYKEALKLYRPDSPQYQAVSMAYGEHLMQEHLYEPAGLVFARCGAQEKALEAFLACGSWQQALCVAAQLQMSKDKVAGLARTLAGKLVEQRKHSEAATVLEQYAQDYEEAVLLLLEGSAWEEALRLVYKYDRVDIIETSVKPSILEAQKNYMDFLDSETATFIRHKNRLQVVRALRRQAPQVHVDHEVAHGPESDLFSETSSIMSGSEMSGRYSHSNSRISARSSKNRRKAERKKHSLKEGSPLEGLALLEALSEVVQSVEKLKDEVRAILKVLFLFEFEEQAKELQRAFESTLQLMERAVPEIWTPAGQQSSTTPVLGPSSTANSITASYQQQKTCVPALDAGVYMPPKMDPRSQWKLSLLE
UniProt Q91WG4: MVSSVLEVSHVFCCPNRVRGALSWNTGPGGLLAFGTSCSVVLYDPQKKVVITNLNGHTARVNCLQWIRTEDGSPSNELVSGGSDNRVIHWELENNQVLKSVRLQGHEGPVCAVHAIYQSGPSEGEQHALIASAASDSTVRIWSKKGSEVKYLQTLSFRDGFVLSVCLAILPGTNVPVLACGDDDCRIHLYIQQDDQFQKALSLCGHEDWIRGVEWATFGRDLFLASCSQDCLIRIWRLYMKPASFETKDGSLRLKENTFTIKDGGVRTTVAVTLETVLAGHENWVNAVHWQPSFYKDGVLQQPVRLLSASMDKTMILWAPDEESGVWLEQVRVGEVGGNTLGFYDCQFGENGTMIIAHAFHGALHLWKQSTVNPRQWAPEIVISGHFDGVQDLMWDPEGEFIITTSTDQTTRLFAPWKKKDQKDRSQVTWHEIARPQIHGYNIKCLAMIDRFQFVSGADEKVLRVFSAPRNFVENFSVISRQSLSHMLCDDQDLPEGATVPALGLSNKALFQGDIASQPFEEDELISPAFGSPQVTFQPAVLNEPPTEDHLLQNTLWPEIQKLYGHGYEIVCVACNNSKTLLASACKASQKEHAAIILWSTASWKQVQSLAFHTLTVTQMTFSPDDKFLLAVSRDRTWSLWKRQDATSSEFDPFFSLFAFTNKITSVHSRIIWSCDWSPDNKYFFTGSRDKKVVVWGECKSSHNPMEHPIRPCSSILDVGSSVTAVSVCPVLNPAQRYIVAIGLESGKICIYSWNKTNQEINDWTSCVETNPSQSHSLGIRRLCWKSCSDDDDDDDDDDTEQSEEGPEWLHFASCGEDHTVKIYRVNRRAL
UniProt Q9CZX0: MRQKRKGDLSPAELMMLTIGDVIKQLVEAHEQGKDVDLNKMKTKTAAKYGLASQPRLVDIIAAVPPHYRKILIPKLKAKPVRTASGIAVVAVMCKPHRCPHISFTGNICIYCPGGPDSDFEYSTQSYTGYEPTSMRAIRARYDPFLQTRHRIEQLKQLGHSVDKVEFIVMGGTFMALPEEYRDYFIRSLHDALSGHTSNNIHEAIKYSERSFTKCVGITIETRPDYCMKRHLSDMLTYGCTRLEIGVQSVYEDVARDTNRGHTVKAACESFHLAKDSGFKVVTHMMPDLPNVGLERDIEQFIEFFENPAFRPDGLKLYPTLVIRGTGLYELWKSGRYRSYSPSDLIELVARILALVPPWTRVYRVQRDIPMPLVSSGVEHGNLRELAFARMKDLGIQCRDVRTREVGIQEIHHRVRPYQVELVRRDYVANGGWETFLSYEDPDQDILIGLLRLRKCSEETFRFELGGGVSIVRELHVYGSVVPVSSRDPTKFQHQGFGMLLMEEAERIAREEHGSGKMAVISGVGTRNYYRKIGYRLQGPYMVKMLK

T2: murine Elp6 (subunit of mElp456) (Mus musculus) (UniProt Q8BK75)
T2 sequence: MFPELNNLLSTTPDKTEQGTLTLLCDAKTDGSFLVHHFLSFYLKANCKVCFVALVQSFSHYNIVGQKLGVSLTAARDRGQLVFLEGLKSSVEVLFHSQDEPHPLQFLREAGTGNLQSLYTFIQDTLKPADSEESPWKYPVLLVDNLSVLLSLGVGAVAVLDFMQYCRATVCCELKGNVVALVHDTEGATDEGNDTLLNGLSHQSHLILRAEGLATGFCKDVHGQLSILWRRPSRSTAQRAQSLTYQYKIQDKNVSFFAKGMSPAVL


Legend:
[1] = target: T1, human Elp6 (subunit of hElp456) (Homo sapiens); assay: SEC; three subunits co-expressed and purified as one complex (human, murine: Hi-5 cells, IgG agarose via Protein A on Elp6, TEV cleavage); gel filtration on Superose 6 Increase 10/300 GL by the legend (S200 Increase 10/300 GL by the methods), 20 mM HEPES pH 7.5, 100 mM NaCl, 2 mM MgCl2, 5 mM DTT; eluted at ~220 kDa; production of the yeast complex not told; both purified
[2] = target: T2, murine Elp6 (subunit of mElp456) (Mus musculus); assay: co-purification; mElp456 variants co-expressed in Hi-5 cells, captured from lysate on IgG agarose via Protein A on Elp6, TEV cleavage, gel filtration
[3] = target: T3, murine Elp123 subcomplex, wild type (murine) (UniProt Q7TT37+Q91WG4+Q9CZX0); assay: pull-down; mElp123WT immobilised on Dynabeads MyOne Streptavidin C1 via Twin-Strep-tagged Elp3, incubated with Elp456 variants 30 min at 4°C, washed 3 times (20 mM HEPES pH 7.5, 100 mM NaCl, 1 mM DTT, 0.05% Tween 20), eluted with 5 mM d-desthiobiotin; Coomassie; both purified
[4] = target: T3, murine Elp123 subcomplex, wild type (murine); assay: SEC; mElp123WT incubated with Elp456 variants 30 min at 25°C in 2:1 ratio, then Superose 6 Increase 10/300 GL in 20 mM HEPES pH 7.5, 100 mM NaCl, 5 mM DTT; co-migration; both purified

Binder	binding [1]	binding [2]	binding [3]	binding [4]
human Elp5 (subunit of hElp456) (protein, UniProt Q8TE02 1-300) MLDSLLALGGLVLLRDSVEWEGRSLLKALVKKSALCGEQVHILGCEVSEEEFREGFDSDINNRLVYHDFFRDPLNWSKTEEAFPGGPLGALRAMCKRTDPVPVTIALDSLSWLLLRLPCTTLCQVLHAVSHQDSCPGDSSSVGKVSVLGLLHEELHGPGPVGALSSLAQTEVTLGGTMGQASAHILCRRPRQRPTDQTQWFSILPDFSLDLQEGPSVESQPYSDPHIPPVDPTTHLTFNLHLSKKEREARDSLILPFQFSSEKQQALLRPRPGQATSHIFYEPDAYDDLDQEDPDDDLDI	binds			
murine Elp4 Y90C (protein, UniProt Q9ER73 1-422) MAAADTCGAGTLSSRSVASEAGQGGTSSFQRKGKASGGPGGGPRLLSIAGTRPSVRNGQLLVSTGLPALDQLLGGGLAVGTLLLIEEDKCNIYSPLLFKYFMAEGIINGHTLLVASAKENPAKILQELPAPLLDDNSKKELEDVHSAKTPEPNVNMKIAWRYQLQPKMEVGPVSSSRFGHYYDLSKRIPWELLQSSKWHGFFLPEHISPDLKGESCFLSCGYMRLLEFIQKSVYAEGFDGANPQKKQKNILRIGIQNLGSPLWGDDICCKENCDNNHRLTKFLYILRGLLRSSLSACIITMPAHLVQNKSITTRVRNLSDTVVGLESFIGSERETNPLYKDYHGLIHIRKIPRLNNLTCDESDVKDLAFKLKRKLFTIERLHLPPDLSDTVGRSSKQDLAASTARLGAGCSSMAEGKKHLDF		binds		
murine Elp456 subcomplex with Elp4 L294I (complex, UniProt Q9ER73 1-422; Q99L85 1-300; Q8BK75 1-266) chain 1: MAAADTCGAGTLSSRSVASEAGQGGTSSFQRKGKASGGPGGGPRLLSIAGTRPSVRNGQLLVSTGLPALDQLLGGGLAVGTLLLIEEDKYNIYSPLLFKYFMAEGIINGHTLLVASAKENPAKILQELPAPLLDDNSKKELEDVHSAKTPEPNVNMKIAWRYQLQPKMEVGPVSSSRFGHYYDLSKRIPWELLQSSKWHGFFLPEHISPDLKGESCFLSCGYMRLLEFIQKSVYAEGFDGANPQKKQKNILRIGIQNLGSPLWGDDICCKENCDNNHRLTKFLYILRGLLRSSISACIITMPAHLVQNKSITTRVRNLSDTVVGLESFIGSERETNPLYKDYHGLIHIRKIPRLNNLTCDESDVKDLAFKLKRKLFTIERLHLPPDLSDTVGRSSKQDLAASTARLGAGCSSMAEGKKHLDF chain 2: MLDSLLAIGGLVLLRDSVEWEGRSLLKALIKKSALRGEQVHVLGCEVSEEEFREGFDSDVNSRLVYHDLFRDPLNWSKPGEAVPEGPLKALRSMCKRTDHGSVTIALDSLSWLLCHIPCVTLCQALHALSQQNGDPGDNSLVEQVRVLGLLHEELHGPGSMGALNTLAHTEVTLSGKVDQTSASILCRRPQQRATYQTWWFSVLPDFSLTLHEGLPLRSELHPDHHTTQVDPTAHLTFNLHLSKKEREARDSLTLPFQFSSEKQKALLHPVPSRTTGHIFYEPDAFDDVDPEDPDDDLDI chain 3: MFPELNNLLSTTPDKTEQGTLTLLCDAKTDGSFLVHHFLSFYLKANCKVCFVALVQSFSHYNIVGQKLGVSLTAARDRGQLVFLEGLKSSVEVLFHSQDEPHPLQFLREAGTGNLQSLYTFIQDTLKPADSEESPWKYPVLLVDNLSVLLSLGVGAVAVLDFMQYCRATVCCELKGNVVALVHDTEGATDEGNDTLLNGLSHQSHLILRAEGLATGFCKDVHGQLSILWRRPSRSTAQRAQSLTYQYKIQDKNVSFFAKGMSPAVL			binds	binds
murine Elp4 L294I (protein, UniProt Q9ER73 1-422) MAAADTCGAGTLSSRSVASEAGQGGTSSFQRKGKASGGPGGGPRLLSIAGTRPSVRNGQLLVSTGLPALDQLLGGGLAVGTLLLIEEDKYNIYSPLLFKYFMAEGIINGHTLLVASAKENPAKILQELPAPLLDDNSKKELEDVHSAKTPEPNVNMKIAWRYQLQPKMEVGPVSSSRFGHYYDLSKRIPWELLQSSKWHGFFLPEHISPDLKGESCFLSCGYMRLLEFIQKSVYAEGFDGANPQKKQKNILRIGIQNLGSPLWGDDICCKENCDNNHRLTKFLYILRGLLRSSISACIITMPAHLVQNKSITTRVRNLSDTVVGLESFIGSERETNPLYKDYHGLIHIRKIPRLNNLTCDESDVKDLAFKLKRKLFTIERLHLPPDLSDTVGRSSKQDLAASTARLGAGCSSMAEGKKHLDF		binds		

Continued, values first:

binding [1]	binding [2]	binding [3]	binding [4]	Binder
		binds	binds	murine Elp456 subcomplex with Elp6 L126Q (complex, UniProt Q9ER73 1-422; Q99L85 1-300; Q8BK75 1-266) chain 1: MAAADTCGAGTLSSRSVASEAGQGGTSSFQRKGKASGGPGGGPRLLSIAGTRPSVRNGQLLVSTGLPALDQLLGGGLAVGTLLLIEEDKYNIYSPLLFKYFMAEGIINGHTLLVASAKENPAKILQELPAPLLDDNSKKELEDVHSAKTPEPNVNMKIAWRYQLQPKMEVGPVSSSRFGHYYDLSKRIPWELLQSSKWHGFFLPEHISPDLKGESCFLSCGYMRLLEFIQKSVYAEGFDGANPQKKQKNILRIGIQNLGSPLWGDDICCKENCDNNHRLTKFLYILRGLLRSSLSACIITMPAHLVQNKSITTRVRNLSDTVVGLESFIGSERETNPLYKDYHGLIHIRKIPRLNNLTCDESDVKDLAFKLKRKLFTIERLHLPPDLSDTVGRSSKQDLAASTARLGAGCSSMAEGKKHLDF chain 2: MLDSLLAIGGLVLLRDSVEWEGRSLLKALIKKSALRGEQVHVLGCEVSEEEFREGFDSDVNSRLVYHDLFRDPLNWSKPGEAVPEGPLKALRSMCKRTDHGSVTIALDSLSWLLCHIPCVTLCQALHALSQQNGDPGDNSLVEQVRVLGLLHEELHGPGSMGALNTLAHTEVTLSGKVDQTSASILCRRPQQRATYQTWWFSVLPDFSLTLHEGLPLRSELHPDHHTTQVDPTAHLTFNLHLSKKEREARDSLTLPFQFSSEKQKALLHPVPSRTTGHIFYEPDAFDDVDPEDPDDDLDI chain 3: MFPELNNLLSTTPDKTEQGTLTLLCDAKTDGSFLVHHFLSFYLKANCKVCFVALVQSFSHYNIVGQKLGVSLTAARDRGQLVFLEGLKSSVEVLFHSQDEPHPLQFLREAGTGNLQSLYTFIQDTQKPADSEESPWKYPVLLVDNLSVLLSLGVGAVAVLDFMQYCRATVCCELKGNVVALVHDTEGATDEGNDTLLNGLSHQSHLILRAEGLATGFCKDVHGQLSILWRRPSRSTAQRAQSLTYQYKIQDKNVSFFAKGMSPAVL
		binds	binds	murine Elp456 subcomplex with Elp6 L118W (complex, UniProt Q9ER73 1-422; Q99L85 1-300; Q8BK75 1-266) chain 1: MAAADTCGAGTLSSRSVASEAGQGGTSSFQRKGKASGGPGGGPRLLSIAGTRPSVRNGQLLVSTGLPALDQLLGGGLAVGTLLLIEEDKYNIYSPLLFKYFMAEGIINGHTLLVASAKENPAKILQELPAPLLDDNSKKELEDVHSAKTPEPNVNMKIAWRYQLQPKMEVGPVSSSRFGHYYDLSKRIPWELLQSSKWHGFFLPEHISPDLKGESCFLSCGYMRLLEFIQKSVYAEGFDGANPQKKQKNILRIGIQNLGSPLWGDDICCKENCDNNHRLTKFLYILRGLLRSSLSACIITMPAHLVQNKSITTRVRNLSDTVVGLESFIGSERETNPLYKDYHGLIHIRKIPRLNNLTCDESDVKDLAFKLKRKLFTIERLHLPPDLSDTVGRSSKQDLAASTARLGAGCSSMAEGKKHLDF chain 2: MLDSLLAIGGLVLLRDSVEWEGRSLLKALIKKSALRGEQVHVLGCEVSEEEFREGFDSDVNSRLVYHDLFRDPLNWSKPGEAVPEGPLKALRSMCKRTDHGSVTIALDSLSWLLCHIPCVTLCQALHALSQQNGDPGDNSLVEQVRVLGLLHEELHGPGSMGALNTLAHTEVTLSGKVDQTSASILCRRPQQRATYQTWWFSVLPDFSLTLHEGLPLRSELHPDHHTTQVDPTAHLTFNLHLSKKEREARDSLTLPFQFSSEKQKALLHPVPSRTTGHIFYEPDAFDDVDPEDPDDDLDI chain 3: MFPELNNLLSTTPDKTEQGTLTLLCDAKTDGSFLVHHFLSFYLKANCKVCFVALVQSFSHYNIVGQKLGVSLTAARDRGQLVFLEGLKSSVEVLFHSQDEPHPLQFLREAGTGNLQSWYTFIQDTLKPADSEESPWKYPVLLVDNLSVLLSLGVGAVAVLDFMQYCRATVCCELKGNVVALVHDTEGATDEGNDTLLNGLSHQSHLILRAEGLATGFCKDVHGQLSILWRRPSRSTAQRAQSLTYQYKIQDKNVSFFAKGMSPAVL
